Assay results as given in patent US6861508 (INSTITUT NATIONAL DE LA SANTE ET DE LA RECHERCHE MEDICALE, dated 2005).

Target: T1, (His)6-TIF2.1, E. coli-expressed purified recombinant TIF2.1 (human, UniProt Q15596 624-1287)
T1 construct: also called His-tagged TIF2.1; purified TIF2.1 protein; not shown: (His)6 tag of pET15b
T1 sequence: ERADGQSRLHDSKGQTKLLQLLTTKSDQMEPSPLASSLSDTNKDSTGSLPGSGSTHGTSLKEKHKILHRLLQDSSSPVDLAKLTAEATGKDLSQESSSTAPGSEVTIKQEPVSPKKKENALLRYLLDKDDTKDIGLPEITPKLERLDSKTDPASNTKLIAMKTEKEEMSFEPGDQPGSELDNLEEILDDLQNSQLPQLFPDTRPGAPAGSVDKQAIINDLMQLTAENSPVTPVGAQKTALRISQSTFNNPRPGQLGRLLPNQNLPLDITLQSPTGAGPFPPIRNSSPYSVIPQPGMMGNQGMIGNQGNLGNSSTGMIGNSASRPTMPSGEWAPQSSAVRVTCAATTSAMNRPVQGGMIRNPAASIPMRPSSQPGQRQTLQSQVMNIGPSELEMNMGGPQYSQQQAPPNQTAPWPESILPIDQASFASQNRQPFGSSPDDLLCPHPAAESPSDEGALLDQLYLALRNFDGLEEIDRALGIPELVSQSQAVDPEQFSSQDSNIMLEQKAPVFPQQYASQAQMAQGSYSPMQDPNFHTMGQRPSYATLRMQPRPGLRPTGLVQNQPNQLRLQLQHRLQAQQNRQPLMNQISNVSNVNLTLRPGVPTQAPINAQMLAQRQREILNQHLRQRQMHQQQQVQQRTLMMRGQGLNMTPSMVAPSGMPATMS
Experiment: GST interaction assay (not shown)

- binding result: no binding
B1: GST-hTAFII28 (printed hTAFn28) (other, human, UniProt Q15544 1-211, looked up)
chain: MDDAHESPSDKGGETGESDETAAVPGDPGATDTDGIPEETDGDADVDLKEAAAEEGELESQDVSDLTTVEREDSSLLNPAAKKLKIDTKEKKEKKQKVDEDEIQKMQILVSSFSEEQLNRYEMYRRSAFPKAAIKRLIQSITGTSVSQNVVIAMSGISKVFVGEVVEEALDVCEKWGEMPPLQPKHMREAVRRLKSKGQIPNSKHKKIIFF
notes: not shown: glutathione-S-transferase (GST)
